## Primary screen of a compound library

The chains behind the UniProt entries cited, without tags or fusion partners.
UniProt P9WFT3, whole entry: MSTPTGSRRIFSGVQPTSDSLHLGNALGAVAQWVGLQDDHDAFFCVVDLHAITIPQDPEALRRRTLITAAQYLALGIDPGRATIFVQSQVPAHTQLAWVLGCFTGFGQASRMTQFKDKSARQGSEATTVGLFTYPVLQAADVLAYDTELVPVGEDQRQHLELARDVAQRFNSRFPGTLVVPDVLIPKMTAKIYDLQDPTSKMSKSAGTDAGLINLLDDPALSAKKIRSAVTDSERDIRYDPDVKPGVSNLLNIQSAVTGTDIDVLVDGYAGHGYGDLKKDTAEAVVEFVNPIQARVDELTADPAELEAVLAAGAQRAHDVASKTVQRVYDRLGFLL
UniProt P9WNZ1, whole entry: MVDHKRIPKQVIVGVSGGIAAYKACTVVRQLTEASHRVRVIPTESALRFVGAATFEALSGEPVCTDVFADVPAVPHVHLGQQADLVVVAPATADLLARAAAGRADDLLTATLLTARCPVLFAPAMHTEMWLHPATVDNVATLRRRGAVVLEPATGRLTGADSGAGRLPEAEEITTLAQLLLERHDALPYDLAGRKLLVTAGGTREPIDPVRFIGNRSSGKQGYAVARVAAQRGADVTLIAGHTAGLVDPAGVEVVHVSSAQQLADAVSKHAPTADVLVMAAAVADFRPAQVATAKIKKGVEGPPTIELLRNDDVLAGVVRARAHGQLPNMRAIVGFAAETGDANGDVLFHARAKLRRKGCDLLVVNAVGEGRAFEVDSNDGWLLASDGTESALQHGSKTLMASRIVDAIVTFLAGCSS

Data taken from ChEMBL document CHEMBL3988442, “University of Dundee, Small-Polar-MMV Screening Library” (2021).

A: 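Tryptophan-tRNA ligase, Mycobacterium tuberculosis (UniProt P9WFT3). Enzyme assay of tryptophanyl-tRNA synthetase; the read-out is not stated. Concentration: 10 µM. Direction is not recorded; retested compounds ran higher, which suggests that high means inhibition. About 65,000 compounds were tested under these conditions; 0.098% (about 64) showed 50% or more at least once.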
B: 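Enzyme assay of CoaBC with a phosphate dye (Biomol Green) read at 650 nm. Target: Coenzyme A biosynthesis protein CoaBC, Mycobacterium tuberculosis (UniProt P9WNZ1). Tested at 30 µM. Direction is inferred from only a few compounds that gave an IC50; most scored high, so higher reads as stronger inhibition. Most strong results did not repeat in a second test. About 67,000 compounds were tested under these conditions; 0.06% (about 40) showed 50% or more at least once.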

The filed quantity is “Percent Effect” (%).
The record does not define 0% and 100%; most values in the screen are far below 50% and negative numbers occur (in some assays of this library far below -100).
The compounds are a random part of those screened.
A dash means the value is not listed here; it may have been measured.

Compound	A	B
CNC(=O)C1CCN(C(=O)NCc2ccc(-c3ccn[nH]3)cc2)CC1	-5.062%	6.258%
Fc1cnc(N2CCOCC3(CCCN(c4nncs4)C3)C2)nc1 (stereo not shown)	1.246%	3.475%
Cc1cc(C)c2nc(C)cc(C(=O)NCc3csc(N(C)C)n3)c2c1	9.557%	2.263%
CC(=O)N(C)Cc1nn(C)c2c1CN(Cc1ccsc1)C2	-5.091%	-1.691%
CN1CCOC[C@H]1c1nc(-c2ccncc2)c[nH]1	-0.07628%	13.95%
Cc1ccc(Br)cc1C(=O)Nc1cc(C(N)=O)n(C)c1	-2.352%	0.6369%
O=C(c1coc(CN2CCN(c3ccccc3F)CC2)n1)N1CCCC1	-0.9226%	-1.845%
Cc1nn2c(=O)/c(=C\c3cccs3)sc2nc1=O	3.997%	9.62%
CC(C)NC(=O)N1CCC2(COCc3cnc(-c4ccccc4)nc32)C1 (stereo not shown)	-3.936%	1.794%
O=C(O)c1ccc2[nH]cc(CN3CCOCC3)c2c1	0.3943%	-3.137%
O=C(O)c1cc(/C=C/c2cccc3ccccc23)ncn1	-0.07241%	1.24%
COC(=O)NCC(=O)N1CCC(c2nc3cc(F)ccc3[nH]2)CC1	-5.734%	-5.967%
CSCCC(NC(=O)c1ccc2ccccc2n1)C(=O)N(C)C (stereo not shown)	17.95%	-21.9%
Cc1ccc(-c2cn[nH]c2C2CCCN(c3ncccn3)C2)cc1 (stereo not shown)	1.016%	-6.114%
CS(=O)(=O)N1CCN(c2ccc(Nc3ccccn3)nn2)CC1	-5.547%	-0.2114%
Cc1ccccc1CNC(=O)Cc1c(C)nc2cc(=O)[nH]n2c1C	0.4717%	-1.33%
CC(CO)(NCc1noc(Cc2ccccc2)n1)C1CCCCC1 (stereo not shown)	-0.1468%	4.463%
CCNC(=O)C1CCCN(c2ccc(C#N)cc2C(F)(F)F)C1 (stereo not shown)	-5.684%	-8.696%
CN(C)CCn1c(=O)oc2ccc(NC(=O)CSc3ccccc3)cc21	6.879%	2.893%
CN1CCN(C2CCN(CCOc3ccc(F)cc3)CC2)C1=O	-1.039%	-3.855%
Cc1cc(C)cc(NC(=O)c2cnc(N3CCN(C)CC3)nc2C)c1	-1.089%	0.6053%
CC(NC(=O)NCc1cccnc1N(C)C)c1ccc(F)cc1 (stereo not shown)	2.601%	3.137%
CCSc1cncc(N2CCC(C(=O)NC(C)C(C)C)CC2)n1 (stereo not shown)	2.089%	8.949%
COc1ccc(-c2cc(-c3nc(CN4CCN(C)CC4)no3)[nH]n2)cc1	0%	1.491%
Cn1ncc(C2CC(=O)NCc3nc4ccccn4c32)c1C1CC1 (stereo not shown)	-2.673%	7.54%
O=C(c1c(O)cnc2ccccc12)N1CCCSCC1	-0.9412%	12.62%
Cc1cc(C)n(C2CN(Cc3ccccn3)C2)n1	-1.485%	6.489%
CCn1c(CN(C)Cc2cnc(C)s2)nc2c(F)cccc21	-2.031%	3.283%
COc1cc(NCc2ncc[nH]2)ccc1Br	-18.77%	2.137%
Cc1nc(CN2CCCN(C(=O)c3ccn(C)c(=O)c3)CC2)cs1	-4.928%	-7.009%
CS(=O)(=O)N1CCCC1c1cccc(Cc2ccccc2F)n1 (stereo not shown)	-	3.186%
CCc1nnc(Nc2cccc(C3CCN(C(=O)CO)CC3)n2)s1	-	0.1239%
COCCCNC(=O)c1nnsc1-c1ccccc1	0%	5.102%
CN1CCCC(c2cccc(-c3cccc(F)c3)n2)C1 (stereo not shown)	-8.249%	4.785%
CCOC(=O)Cn1cccc(S(=O)(=O)N2CCCC2)c1=O	-3.852%	4.798%
Cc1ccccc1N1CCN(C(=O)Cn2ccnc2)CC1=O	-1.975%	1.225%
CCCC(=O)NCCc1cc(NC)nc(-c2ccccn2)n1	20.56%	13.8%
CS(=O)(=O)c1ccc(CNC(=O)Nc2cn[nH]c2)cc1	-8.323%	5.357%
CCc1nnc2n1CCN(Cc1cc(Cl)c3c(c1)OCCO3)C2	0.7741%	8.095%
CCCN1CCN(C(=O)Cc2nc(-c3ccco3)oc2C)CC1	-0.895%	-10.58%
O=C(NC[C@H]1C[C@@H]2CCN1C[C@@H]2CN1CCCCC1)Nc1ccccc1	-5.497%	-16.03%
Cc1cccc(CN2C[C@@H]3COC[C@]3(CNC(=O)c3ccccc3)C2)n1	-3.662%	-7.983%
O=C(NCc1ccoc1)Nc1cc(C(F)(F)F)c[nH]c1=O	2.6%	4.092%
Cc1noc(CCNC(=O)c2ccc(N(C)C)c(F)c2)n1	-4.4%	-0.4878%
O=C(c1cccnc1)N1CCC2(CC1)CC(Oc1ccccc1)CO2 (stereo not shown)	-4.439%	-0.6369%

Once more, the final 5:

* O=C(NC[C@H]1C[C@@H]2CCN1C[C@@H]2CN1CCCCC1)Nc1ccccc1 | A: -5.497%; B: -16.03%
* Cc1cccc(CN2C[C@@H]3COC[C@]3(CNC(=O)c3ccccc3)C2)n1 | A: -3.662%; B: -7.983%
* O=C(NCc1ccoc1)Nc1cc(C(F)(F)F)c[nH]c1=O | A: 2.6%; B: 4.092%
* Cc1noc(CCNC(=O)c2ccc(N(C)C)c(F)c2)n1 | A: -4.4%; B: -0.4878%
* O=C(c1cccnc1)N1CCC2(CC1)CC(Oc1ccccc1)CO2 (stereo not shown) | A: -4.439%; B: -0.6369%